The results in this text go back to PubChem BioAssay AID248 (DTP/NCI, 2004).

In the assay the test system is L1210 leukemia ip in BDF1 mice, survival T/C. The assay can be described thus: NCI In Vivo Anticancer Drug Screen. Data for tumor model L1210 Leukemia (intraperitoneal) in B6D2F1 (BDF1) mice. The following applies: T/C endpoint: mean survival time, higher T/C = longer survival.
Where [1] appears, read: dose: 200.0 mg/kg/injection, schedule: Q04DX002 (ip), vehicle: saline with Tween-80.
[2] abbreviates: dose: 400.0 mg/kg/injection, schedule: Q04DX002 (ip), vehicle: saline with Tween-80.
Where [3] appears, read: dose: 25.0 mg/kg/injection, schedule: Q01DX009 (ip), vehicle: saline with Tween-80.
Where [4] appears, read: dose: 50.0 mg/kg/injection, schedule: Q01DX009 (ip), vehicle: saline with Tween-80.
The mark [5] stands for this setting: dose: 100.0 mg/kg/injection, schedule: Q01DX009 (ip), vehicle: saline with Tween-80.
Setting [6] is: dose: 200.0 mg/kg/injection, schedule: Q01DX009 (ip), vehicle: saline with Tween-80.
The mark [7] stands for this setting: dose: 400.0 mg/kg/injection, schedule: Q01DX009 (ip), vehicle: saline with Tween-80.
Where [8] appears, read: dose: 400.0 mg/kg/injection, schedule: Q01DX009 (ip), vehicle: Klucel (hydroxypropylcellulose) (HPC).
[9] abbreviates: dose: 200.0 mg/kg/injection, schedule: Q04DX003 (ip), vehicle: saline.
[10] abbreviates: dose: 400.0 mg/kg/injection, schedule: Q04DX003 (ip), vehicle: saline.
[11] abbreviates: dose: 100.0 mg/kg/injection, schedule: Q01DX009 (ip), vehicle: Klucel (hydroxypropylcellulose) (HPC).
Where [12] appears, read: dose: 200.0 mg/kg/injection, schedule: Q01DX009 (ip), vehicle: Klucel (hydroxypropylcellulose) (HPC).
The mark [13] stands for this setting: dose: 100.0 mg/kg/injection, schedule: Q01DX001 (ip), vehicle: other.
Where [14] appears, read: dose: 200.0 mg/kg/injection, schedule: Q01DX001 (ip), vehicle: other.
The mark [15] stands for this setting: dose: 400.0 mg/kg/injection, schedule: Q01DX001 (ip), vehicle: other.
The mark [16] stands for this setting: dose: 200.0 mg/kg/injection, schedule: Q04DX003 (ip), vehicle: saline with Tween-80.
Setting [17] is: dose: 400.0 mg/kg/injection, schedule: Q04DX003 (ip), vehicle: saline with Tween-80.
[18] abbreviates: dose: 400.0 mg/kg/injection, schedule: Q01DX001 (ip), vehicle: saline.

The list does not hold the whole screen: it is rich in T/C values a quarter to a half above the control, in often repeated tests (any T/C) and in doses without a T/C. Further doses and runs are listed elsewhere. T/C: endpoint of the treated group in % of that of the vehicle group. Some doses have a count of surviving animals in place of a T/C: the source files T/C as zero there, which appears to mark a toxic dose or a test without result, not a measured value. Some doses without a T/C left all or most animals alive at the check, yet need not have been tolerated: survival well below the control is almost never listed, so the zero probably covers shortened survival too. Survivors were counted at the toxicity check, usually on the fifth day, unless a day is given; later deaths do not show. Schedules are NCI's codes, read here as Q, the interval in days (D) or hours (H), X, the number of doses. Some entries hold several experiments; the values are given in rising order. Where survival is the endpoint, this PubChem deposit counts one and a half times the control or more as active, and values a quarter to a half above the control carry no call in these data; other NCI protocols may use other cut-offs. Some T/C values are followed by the survivors on the day toxicity was checked, most often the fifth; without a count, all were alive then.

In the case of `c1ccc2c(CCNC3=NCCO3)c[nH]c2c1`, the survivor count reads like this: under setting [1], 0 of 3; under setting [2], 0 of 3.
Consider `N#CC1(C#N)C2C=CC(C2)C1(C#N)C#N`, for which the survivor count is, setting by setting: under setting [3], 3 of 6 and 6 of 6; under setting [4], 1 of 6; under setting [5], 0 of 6; under setting [6], 0 of 6; under setting [7], 0 of 6.
Regarding `N/C(=N\OC(=O)Nc1ccc(Cl)cc1)C(Cl)(Cl)Cl`, under setting [8], the survivor count is reported as 1 of 6.
Consider `CCC(CC)N=C(N)N`, for which the survivor count under setting [9] was 6 of 6 and the survivor count under setting [10] is given as 1 of 6.
For `CCS(=O)(=O)OCCCl`, the survivor count reads like this: under setting [11], 3 of 6; under setting [12], 2 of 6; (dose: 200.0 mg/kg/injection, schedule: Q04DX002 (ip), vehicle: Klucel (hydroxypropylcellulose) (HPC)) 0 of 3; (dose: 400.0 mg/kg/injection, schedule: Q01DX001 (ip), vehicle: carboxymethylcellulose (CMC)) 0 of 6; (dose: 400.0 mg/kg/injection, schedule: Q04DX002 (ip), vehicle: Klucel (hydroxypropylcellulose) (HPC)) 0 of 3.
Take `CCN1Cc2ccc(O)cc2C1`: the survivor count reads like this: (dose: 200.0 mg/kg/injection, schedule: Q01DX009 (ip), vehicle: saline) 5 of 6; under setting [9], 5 of 6; (dose: 400.0 mg/kg/injection, schedule: Q01DX009 (ip), vehicle: saline) 0 of 6; under setting [10], 0 of 6.
As for `O=C(O)C(=O)c1ccccc1`, the survivor count under setting [10] was 3 of 6.
In the case of `CN(C)S(=O)(=O)c1ccc(NC(=O)CI)cc1`, the survivor count under setting [4] is listed as 3 of 6, the survivor count under setting [13] is reported as 0 of 6, the survivor count under setting [14] is on record as 0 of 6 and the survivor count under setting [15] was 0 of 6.
As to `Oc1c(-c2ccccc2)nn(O)c1-c1ccccc1`, the survivor count is, setting by setting: under setting [11], 0 of 3; under setting [12], 0 of 3.
Turning to `CN(C)C(=O)c1cccc(NC(=O)NCc2cccc(N3C(N)=NC(N)=NC3(C)C)c2)c1`, the survivor count by setting is: under setting [6], 1 of 6; under setting [16], 2 of 6; under setting [7], 1 of 6; under setting [17], 0 of 6.
Take `O=C(CCl)N(O)c1ccccc1OCc1ccccc1`: for the setting “dose: 400.0 mg/kg/injection, schedule: Q04DX003 (ip), vehicle: carboxymethylcellulose (CMC)”, the survivor count is on record as 1 of 6.
`CC12C=CC(CC1)C2O` (stereo not given): the survivor count under setting [7] is reported as 4 of 6.
For the compound `CC(C)C1(Br)C(=O)NC(=O)NC1=O`, the survivor count by setting is: (dose: 25.0 mg/kg/injection, schedule: Q01DX009 (ip), vehicle: Klucel (hydroxypropylcellulose) (HPC)) 1 of 6 and 2 of 6; (dose: 50.0 mg/kg/injection, schedule: Q01DX009 (ip), vehicle: Klucel (hydroxypropylcellulose) (HPC)) 0 of 6; under setting [11], 0 of 6; under setting [12], 0 of 6; under setting [8], 0 of 6.
For `CC(C)(CO)NCc1ccc(Cl)cc1`, the survivor count under setting [18] is 1 of 4.
Take `Cc1ccc(N)c2cccnc12`: the survivor count by setting is: under setting [12], 6 of 6; under setting [8], 1 of 6.
Consider `Cc1cc(C(=O)C[n+]2ccccc2)c(CN2C(=O)c3ccccc3C2=O)c(=O)n1C`, for which the survivor count (dose: 200.0 mg/kg/injection, schedule: Q01DX001 (ip), vehicle: water) is 2 of 6 and the survivor count (dose: 400.0 mg/kg/injection, schedule: Q01DX001 (ip), vehicle: water) is given as 0 of 6.
As to `Cc1c(C(C)(C)C)cc(C(C)(C)C)c(O)c1[N+](=O)[O-]`, the survivor count (dose: 100.0 mg/kg/injection, schedule: Q01DX001 (ip), vehicle: carboxymethylcellulose (CMC)) is 3 of 3.
For `COc1ccc2c(c1)/C(=C/CCN(C)C)c1ccccc1S2`, the survivor count (dose: 25.0 mg/kg/injection, schedule: Q01DX009 (ip), vehicle: carboxymethylcellulose (CMC)) is reported as 1 of 6; the survivor count (dose: 50.0 mg/kg/injection, schedule: Q04DX003 (ip), vehicle: other) was 1 of 6; the survivor count under setting [13] is 0 of 6; the survivor count under setting [14] was 0 of 6; the survivor count under setting [15] is given as 0 of 6.
As to `CCOC(=O)c1cnc(SCc2ccccc2Cl)nc1N1CC1`, the T/C was 136 % of control (dose: 42.5 mg/kg/injection, schedule: Q01DX009 (ip), vehicle: saline with Tween-80); 134 % of control [4 of 6 alive] (dose: 75.0 mg/kg/injection, schedule: Q04DX003 (ip), vehicle: saline); 128 % of control (dose: 100.0 mg/kg/injection, schedule: Q01DX001 (ip), vehicle: saline). Besides, the survivor count reads like this: (dose: 85.0 mg/kg/injection, schedule: Q01DX009 (ip), vehicle: saline with Tween-80) 4 of 6; (dose: 170.0 mg/kg/injection, schedule: Q01DX009 (ip), vehicle: saline with Tween-80) 0 of 6; (dose: 200.0 mg/kg/injection, schedule: Q01DX001 (ip), vehicle: saline) 0 of 6; (dose: 255.0 mg/kg/injection, schedule: Q04DX003 (ip), vehicle: saline with Tween-80) 0 of 6; (dose: 385.0 mg/kg/injection, schedule: Q04DX003 (ip), vehicle: saline with Tween-80) 0 of 6; under setting [18], 0 of 6.
`Clc1c2ccccc2c(Cl)c2ccccc12`: the survivor count reads like this: (dose: 6.25 mg/kg/injection, schedule: Q04DX002 (ip), vehicle: Klucel (hydroxypropylcellulose) (HPC)) 3 of 3; (dose: 25.0 mg/kg/injection, schedule: Q04DX002 (ip), vehicle: Klucel (hydroxypropylcellulose) (HPC)) 3 of 3; (dose: 50.0 mg/kg/injection, schedule: Q04DX002 (ip), vehicle: Klucel (hydroxypropylcellulose) (HPC)) 3 of 3; (dose: 100.0 mg/kg/injection, schedule: Q04DX002 (ip), vehicle: Klucel (hydroxypropylcellulose) (HPC)) 3 of 3.
In the case of `CCCCNC(C)(C)C(SSSC(c1ccc(Cl)cc1)C(C)(C)NCCCC)c1ccc(Cl)cc1` (stereo not given), the survivor count was 2 of 6 (dose: 100.0 mg/kg/injection, schedule: Q04DX003 (ip), vehicle: saline); 0 of 6 under setting [9]; 0 of 6 under setting [10].
As to `C=COCCN(C)C`, the survivor count under setting [10] was 0 of 6.
`COc1cc(N)c([N+](=O)[O-])c(OC)c1`: the survivor count under setting [16] was 3 of 6 and the survivor count under setting [17] is 0 of 6.
`O=C(Nc1cccc(C(F)(F)F)c1)Nc1ccc2sc(=S)[nH]c2c1`: the survivor count runs as follows: under setting [3], 6 of 6; under setting [5], 6 of 6; under setting [6], 6 of 6.
As to `CCc1cc2c(cc1C(=O)/C=C\c1cccc3ccccc13)C(C)(C)CCC2(C)C`, the survivor count by setting is: (dose: 50.0 mg/kg/injection, schedule: Q04DX002 (ip), vehicle: saline with Tween-80) 3 of 3; under setting [1], 3 of 3; under setting [2], 3 of 3.
In the case of `N.N.N.N.N.N#CN=C(N)N.[Co+3].[O-][Cl+3]([O-])([O-])[O-]`, the survivor count by setting is: (dose: 200.0 mg/kg/injection, schedule: Q04DX002 (ip), vehicle: saline) 0 of 3; (dose: 400.0 mg/kg/injection, schedule: Q04DX002 (ip), vehicle: saline) 0 of 3.
